According to PubChem BioAssay AID2662 (National Center for Advancing Translational Sciences (NCATS), 2010):
Out of some 290,000 compounds screened, about 110 (0.038%) were called active. The shares of active, inactive and inconclusive entries below differ from those in the screen. Calls follow the shape of the dose curve; as a rule, active = well fitted inhibition curve with a large enough effect in the polarisation, with a control signal flat (not every such curve was filed as active); inconclusive = small, poorly fitted or top-dose-only effect, or effect the other way, or a change in a side signal; inactive = no such curve, though single readings can be large or run the other way; the % refers to the polarisation. Where the call is inconclusive, the potency comes from a doubtful curve fit. “Side channel” marks fits to a control or component signal instead of the main read-out.

By UniProt entry, the sequences of proteins in these tests, tags left out.
UniProt Q03164, whole entry, looked up: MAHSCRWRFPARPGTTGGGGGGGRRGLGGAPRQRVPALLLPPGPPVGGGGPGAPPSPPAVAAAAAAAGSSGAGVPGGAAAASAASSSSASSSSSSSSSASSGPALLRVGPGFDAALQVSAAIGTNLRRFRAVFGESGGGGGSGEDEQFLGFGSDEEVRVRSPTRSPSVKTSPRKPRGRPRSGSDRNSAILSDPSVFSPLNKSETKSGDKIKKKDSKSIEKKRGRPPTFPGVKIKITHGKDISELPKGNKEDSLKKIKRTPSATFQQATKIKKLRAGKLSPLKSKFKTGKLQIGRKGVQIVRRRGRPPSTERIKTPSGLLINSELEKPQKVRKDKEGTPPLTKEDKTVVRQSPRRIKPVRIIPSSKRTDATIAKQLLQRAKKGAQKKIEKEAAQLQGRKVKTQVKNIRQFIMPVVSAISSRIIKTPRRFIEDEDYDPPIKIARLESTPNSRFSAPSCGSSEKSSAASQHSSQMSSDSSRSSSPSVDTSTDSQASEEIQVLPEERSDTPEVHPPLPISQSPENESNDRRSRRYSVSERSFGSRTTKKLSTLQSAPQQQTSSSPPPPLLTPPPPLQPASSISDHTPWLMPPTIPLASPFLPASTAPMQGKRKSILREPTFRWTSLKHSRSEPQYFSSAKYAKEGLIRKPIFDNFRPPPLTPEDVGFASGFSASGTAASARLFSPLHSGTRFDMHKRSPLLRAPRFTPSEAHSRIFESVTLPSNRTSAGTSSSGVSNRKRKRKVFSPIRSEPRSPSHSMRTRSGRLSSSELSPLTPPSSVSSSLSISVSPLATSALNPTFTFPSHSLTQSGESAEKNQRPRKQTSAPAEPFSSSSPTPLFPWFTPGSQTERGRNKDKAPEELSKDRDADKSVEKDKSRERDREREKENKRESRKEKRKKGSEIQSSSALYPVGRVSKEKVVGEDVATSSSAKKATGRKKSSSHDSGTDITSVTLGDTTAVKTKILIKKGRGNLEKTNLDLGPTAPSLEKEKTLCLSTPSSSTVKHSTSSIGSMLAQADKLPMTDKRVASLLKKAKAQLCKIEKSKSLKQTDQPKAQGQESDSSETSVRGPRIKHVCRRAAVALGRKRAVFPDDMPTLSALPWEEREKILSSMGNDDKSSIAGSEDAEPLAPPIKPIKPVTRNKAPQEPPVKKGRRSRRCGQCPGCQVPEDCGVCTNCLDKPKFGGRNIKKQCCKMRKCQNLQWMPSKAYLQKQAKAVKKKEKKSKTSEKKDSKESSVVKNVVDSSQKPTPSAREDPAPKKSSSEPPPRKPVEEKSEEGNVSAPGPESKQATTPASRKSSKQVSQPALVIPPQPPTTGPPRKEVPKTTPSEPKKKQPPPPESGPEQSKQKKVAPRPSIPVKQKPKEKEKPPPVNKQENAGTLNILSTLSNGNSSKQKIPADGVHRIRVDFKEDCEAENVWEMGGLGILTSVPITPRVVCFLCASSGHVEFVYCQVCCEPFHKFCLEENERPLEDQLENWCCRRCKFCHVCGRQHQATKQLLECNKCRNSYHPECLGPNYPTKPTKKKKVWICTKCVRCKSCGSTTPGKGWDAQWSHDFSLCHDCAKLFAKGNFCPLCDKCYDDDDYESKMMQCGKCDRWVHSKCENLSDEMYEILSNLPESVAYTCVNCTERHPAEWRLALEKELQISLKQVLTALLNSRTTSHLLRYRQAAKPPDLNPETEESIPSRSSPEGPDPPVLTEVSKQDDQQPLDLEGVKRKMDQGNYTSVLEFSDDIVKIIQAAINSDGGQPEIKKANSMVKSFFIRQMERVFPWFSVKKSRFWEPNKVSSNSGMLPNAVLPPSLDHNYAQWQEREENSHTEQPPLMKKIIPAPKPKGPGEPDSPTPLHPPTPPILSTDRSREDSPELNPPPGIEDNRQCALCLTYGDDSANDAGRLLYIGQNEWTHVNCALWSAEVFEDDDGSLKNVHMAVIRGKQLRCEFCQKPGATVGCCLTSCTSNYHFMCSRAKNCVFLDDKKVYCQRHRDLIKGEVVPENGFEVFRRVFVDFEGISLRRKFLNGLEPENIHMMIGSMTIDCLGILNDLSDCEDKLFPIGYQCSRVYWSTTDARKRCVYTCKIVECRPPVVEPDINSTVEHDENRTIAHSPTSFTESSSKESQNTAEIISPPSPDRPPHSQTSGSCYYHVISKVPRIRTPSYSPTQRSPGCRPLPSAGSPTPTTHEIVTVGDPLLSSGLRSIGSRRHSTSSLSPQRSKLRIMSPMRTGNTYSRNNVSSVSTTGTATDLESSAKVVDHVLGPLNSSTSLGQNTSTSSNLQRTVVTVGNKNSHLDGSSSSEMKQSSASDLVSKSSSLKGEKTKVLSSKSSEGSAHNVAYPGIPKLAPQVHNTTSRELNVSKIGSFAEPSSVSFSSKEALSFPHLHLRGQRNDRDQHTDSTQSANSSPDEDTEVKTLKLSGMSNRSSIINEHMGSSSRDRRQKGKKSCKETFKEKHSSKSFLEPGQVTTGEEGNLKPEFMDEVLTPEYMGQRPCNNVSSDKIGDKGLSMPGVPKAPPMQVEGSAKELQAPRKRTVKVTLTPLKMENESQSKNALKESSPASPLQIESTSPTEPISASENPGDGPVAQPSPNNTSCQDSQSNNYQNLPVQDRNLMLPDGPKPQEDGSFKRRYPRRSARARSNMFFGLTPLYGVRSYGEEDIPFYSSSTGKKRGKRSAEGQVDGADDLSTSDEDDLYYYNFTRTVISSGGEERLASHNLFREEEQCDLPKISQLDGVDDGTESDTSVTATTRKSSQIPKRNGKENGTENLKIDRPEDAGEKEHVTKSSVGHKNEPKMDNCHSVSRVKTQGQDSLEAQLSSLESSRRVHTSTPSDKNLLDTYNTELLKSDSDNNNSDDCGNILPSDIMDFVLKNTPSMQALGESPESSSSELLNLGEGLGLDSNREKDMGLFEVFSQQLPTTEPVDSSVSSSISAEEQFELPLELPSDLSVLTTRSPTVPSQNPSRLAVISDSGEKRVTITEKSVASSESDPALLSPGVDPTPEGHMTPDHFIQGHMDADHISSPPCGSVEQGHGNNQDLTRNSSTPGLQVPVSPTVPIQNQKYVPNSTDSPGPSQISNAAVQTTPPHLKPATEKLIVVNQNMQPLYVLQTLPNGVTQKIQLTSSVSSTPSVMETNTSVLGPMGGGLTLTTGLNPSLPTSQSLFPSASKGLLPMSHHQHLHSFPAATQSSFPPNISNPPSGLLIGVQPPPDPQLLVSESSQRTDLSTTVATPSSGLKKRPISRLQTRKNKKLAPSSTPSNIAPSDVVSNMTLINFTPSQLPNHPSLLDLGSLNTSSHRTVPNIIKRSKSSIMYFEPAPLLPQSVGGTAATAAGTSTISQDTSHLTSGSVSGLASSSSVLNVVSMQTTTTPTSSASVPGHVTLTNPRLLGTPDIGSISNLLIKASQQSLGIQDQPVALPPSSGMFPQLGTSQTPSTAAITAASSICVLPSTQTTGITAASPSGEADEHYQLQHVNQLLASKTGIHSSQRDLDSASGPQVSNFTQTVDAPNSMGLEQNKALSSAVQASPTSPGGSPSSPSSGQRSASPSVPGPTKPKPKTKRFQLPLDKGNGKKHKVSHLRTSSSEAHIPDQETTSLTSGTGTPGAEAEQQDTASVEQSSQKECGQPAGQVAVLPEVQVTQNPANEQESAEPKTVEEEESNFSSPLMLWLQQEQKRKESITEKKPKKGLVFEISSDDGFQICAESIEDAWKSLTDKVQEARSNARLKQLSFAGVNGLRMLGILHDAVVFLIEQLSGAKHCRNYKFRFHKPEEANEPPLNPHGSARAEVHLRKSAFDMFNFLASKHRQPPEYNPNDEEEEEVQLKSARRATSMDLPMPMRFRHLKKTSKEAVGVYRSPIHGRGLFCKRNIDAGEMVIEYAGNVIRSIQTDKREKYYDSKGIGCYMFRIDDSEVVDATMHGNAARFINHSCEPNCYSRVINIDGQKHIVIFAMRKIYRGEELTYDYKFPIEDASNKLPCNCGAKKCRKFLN

target: Histone-lysine N-methyltransferase 2A (Homo sapiens) (UniProt Q03164); assay: qHTS Fluorescence Polarization Assay for Inhibitors of MLL CXXC domain - DNA interaction; details: MLL-CXXC / FITC-HOXA9 DNA fluorescence polarization; series mostly up to 115 µM
Outline: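 Steps: dispense CXXC domain solution (7 uM) → pin compounds or unlabeled HOX-A9 DNA control → 5 min ambient → add FLSN-HOX-A9 solution (50 nM) → spin → 30 min ambient → fluorescence polarization. Tris pH 7.5/NaCl/DTT/BSA buffer.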
Potency is read from the fitted curve at half-maximal effect.

SMILES | Potency
CC1=CC2=NC(=O)/C(=C/c3coc4ccccc4c3=O)C(=N)N2O1 | inconclusive: 35.5 µM [fluorescent, side channel, partial curve]
COc1ccc(NC(=O)NCc2ccccn2)c(OC)c1 | inconclusive: 14.1 µM [fluorescent, side channel, single point]
COc1cc(NC(=O)COc2ccccc2)ccc1NC(=O)c1ccco1 | inconclusive: 1 µM [quencher, side channel, full curve, poor fit]
CN(C)c1ccc(/C=C/C(=O)c2cccc(Br)c2)cc1 | inconclusive: 44.7 µM [fluorescent, side channel, partial curve]
Cc1ccc(N(CC(=O)N/N=C/c2ccc(OC3CSC3)cc2)S(=O)(=O)c2ccccc2)c(C)c1 | inconclusive: 56.2 µM [inhibitor, single point]
COc1ccc(-n2c(C)cc(/C=N/Nc3nnc(C)n3N)c2C)cc1 | inconclusive: 63.1 µM [inhibitor, single point]
Nc1ccc(-c2nc3ccc(-c4nc5ccc(N)cc5[nH]4)cc3[nH]2)cc1 | inconclusive: 28.2 µM [quencher, side channel, partial curve]
O=C(NCCCN1CCCC1)c1cc2c(Cl)nc3ccccc3c2s1 | inconclusive: 31.6 µM [inhibitor, single point]
COc1cc(/C=C2\SC(=O)N(CC(=O)Nc3ccc(C)cc3)C2=O)cc(Cl)c1OCC(=O)O | inconclusive: 25.1 µM [inhibitor, partial curve]
O=C(c1nnsc1S(=O)(=O)c1ccc(Cl)cc1)N1CCOCC1 | inconclusive: 44.7 µM [inhibitor, single point]
CCOc1ccc(C(=O)Nc2ccc(N3CCCC3)cc2)cc1 | inconclusive: 35.5 µM [quencher, side channel, partial curve]
CCOCCCNC(=O)C(c1ccc(OC)cc1)N(Cc1ccc2c(c1)OCO2)C(=O)c1ccccn1 (configuration not stated) | inconclusive: 11.2 µM [fluorescent, side channel, partial curve]
Cc1ccc(C(C(=O)NC2CCCCC2)N(Cc2ccco2)C(=O)Cn2cnc3ccccc32)cc1 (configuration not stated) | inactive
CC1=NN(c2ccc(S(=O)(=O)O)cc2Cl)C(=O)C1 | inconclusive: 35.5 µM [inhibitor, partial curve]
CCCCC1OC23CCCCC2C(C#N)(C#N)C1(C#N)C(=N)O3 (configuration not stated) | inactive
CCNC(=O)/C(C#N)=C/c1c(N2CCCCCC2)nc2ccccn2c1=O | inconclusive: 63.1 µM [fluorescent, side channel, single point]
S=C(Nc1ccccc1)N1CCN(C(=S)c2ccccc2)CC1 | inconclusive: 44.7 µM [fluorescent, side channel, single point]
CN(CC(=O)O/N=C(\N)c1ccc(Br)cc1)S(=O)(=O)c1ccccc1 | inconclusive: 15.8 µM [fluorescent, side channel, single point]
CSC1=NC(NCCCO)c2c(sc3c2CC(C)(C)OC3)N1 (configuration not stated) | inactive
O=C(CCCOc1ccc(Cl)cc1)N1CCCCC1 | inactive
Cc1ccc(NCc2ccncc2)c(Br)c1 | inconclusive: 3.55 µM [inhibitor, partial curve]

SMILES | Potency
Cc1cc(C)cc(NC(=O)NCc2ccccn2)c1 | inconclusive: 14.1 µM [quencher, side channel, single point]
CN1CCN(CCCCOc2cccc3ccccc23)CC1 | inconclusive: 89.1 µM [fluorescent, side channel, single point]
O=C(O)CN1C(=O)/C(=C\c2cccc(OCc3ccc(Cl)cc3Cl)c2)SC1=S | inconclusive: 10 µM [inhibitor, partial curve]
Cc1cc2cc(C)c(NCCNC(=O)c3ccccc3)nc2cc1C | inactive
Cn1ccc(=Nc2ccc(NC(=O)c3ccc(N=c4ccn(C)c5ccc([N+](=O)[O-])cc45)cc3)cc2)cc1 | inconclusive: 31.6 µM [quencher, side channel, partial curve]
COCCCn1c(=O)c2sccc2n(Cc2cccc(F)c2)c1=O | inactive
CC(Sc1nc2ccccc2s1)C(=O)c1c(N)n(C)c(=O)n(C)c1=O (configuration not stated) | inconclusive: 39.8 µM [fluorescent, side channel, single point]
CCn1c2ccccc2c2cc(NC(=O)c3coc(=O)c(Br)c3)ccc21 | inconclusive: 44.7 µM [fluorescent, side channel, partial curve]
Oc1ccccc1-c1nc(/C=C/c2ccccc2)nn1-c1ccccc1 | inconclusive: 141 µM [fluorescent, side channel, partial curve]
CCc1noc(C)c1C(=O)N1CCC(CCC(=O)Nc2cccc(OC)c2)CC1 | inconclusive: 14.1 µM [quencher, side channel, single point]
CCOC(=O)c1c(-c2ccc(OC)cc2)csc1/N=C/C1C(=O)CCCC1=O | inactive
CCN(CC)c1ccc(/C=N/NC(=O)OC)c(O)c1 | inactive
Cc1ccc2nc(-c3ccco3)c(Nc3ccccc3)n2c1 | inactive
N#Cc1cc(C(=O)c2cc(F)ccc2O)cn(-c2nccs2)c1=O | inconclusive: 10 µM [fluorescent, side channel, full curve]
CCCNC(=O)c1ccc(S(N)(=O)=O)cc1 | inconclusive: 70.8 µM [fluorescent, side channel, single point]
COc1ccc(-c2nn(-c3ccccc3)cc2/C=C\C(=O)Nc2ccc(C(=O)O)cc2)cc1 | inconclusive: 39.8 µM [inhibitor, single point]
Cc1cc(C)cc(N2CCCn3c2nc2c3c(=O)[nH]c(=O)n2C)c1 | inconclusive: 63.1 µM [inhibitor, single point]
C#Cc1ccc(CN2CCN(CCc3ccccc3)C(CCO)C2)cc1 (configuration not stated) | inactive
CC(C)CN(CC(C)C)CC(O)COc1ccccc1Br (configuration not stated) | inactive
CCOc1ccc(N(Cc2ccc(C(=O)O)cc2)S(=O)(=O)c2ccc(C)cc2)cc1 | inconclusive: 35.5 µM [inhibitor, partial curve]
Cc1cc(C)c2cc(C#N)c(NCCOC(=O)c3ccccc3C)nc2c1 | inconclusive: 31.6 µM [fluorescent, side channel, single point]

SMILES | Potency
COc1ccccc1N=Nc1[nH]c2ccc(C)cc2c1O | inactive
Cc1csc(C(=O)O)c1NC(=O)c1c(Cl)cccc1Cl | inconclusive: 1.41 µM [fluorescent, side channel, full curve]
Cc1noc(NS(=O)(=O)c2ccc(NC(=O)/C=C/c3ccc(C(C)C)cc3)cc2)c1C | inconclusive: 31.6 µM [inhibitor, partial curve]
CC(=O)c1c(O)cc(=O)n(-c2ccccc2)c1-c1ccc(Cl)cc1 | inconclusive: 14.1 µM [inhibitor, single point]
O=C(O)COc1ccc(/C=N/NC(=O)c2cccc3ccccc23)cc1 | inconclusive: 50.1 µM [fluorescent, side channel, single point]
O=c1c(O)c(-c2cccs2)oc2ccccc12 | inconclusive: 7.94 µM [fluorescent, side channel, partial curve]
Cc1c(C=O)c2ccccn2c1C(=O)c1ccccc1Cl | inconclusive: 70.8 µM [fluorescent, side channel, single point]
S=c1nc(-c2ccc(Br)cc2)oc2c1CCCC2 | inconclusive: 89.1 µM [inhibitor, single point]
COCCOc1cc(NC(=O)c2sccc2Oc2ccc([N+](=O)[O-])cc2F)c(Cl)cc1Cl | inactive
O=c1[nH]c(N/N=C/c2cc3c(cc2[N+](=O)[O-])OCO3)nc2ccccc12 | inactive
O=c1c2ccccc2nc2n1CCO2 | inconclusive: 70.8 µM [inhibitor, single point]
COc1cccc2cc(C(N)=O)oc12 | inconclusive: 15.8 µM [fluorescent, side channel, partial curve]
COc1ccc(C(=O)N=c2c(C#N)cc3c(=O)n4cccc(C)c4nc3n2Cc2ccco2)cc1 | inconclusive: 89.1 µM [inhibitor, single point]
CCN(CC)c1cc(-c2ccccc2)ncn1 | inconclusive: 3.16 µM [quencher, side channel, full curve, poor fit]
Cc1cc2oc(=O)cc(CN3CCCCC3)c2cc1O | inconclusive: 89.1 µM [quencher, side channel, single point]
CCCN1CCN(C(=S)Nc2ccccc2C(F)(F)F)CC1 | inconclusive: 31.6 µM [quencher, side channel, single point]
NC(=O)/C(=C\c1ccncc1)c1cccc2ccccc12 | inconclusive: 14.1 µM [fluorescent, single point]
Cc1ccc(/C=c2\s/c(=C(/C#N)C(=O)N3CCCC3)n(Cc3ccco3)c2=O)s1 | inconclusive: 35.5 µM [fluorescent, side channel, single point]
O=C(COc1ccc(S(=O)(=O)Nc2cccc(C(F)(F)F)c2)cc1)N1CCOCC1 | inconclusive: 14.1 µM [fluorescent, side channel, single point]
Cc1ccc(CN2CC(C(=O)NCCCSc3ccccc3)CC2=O)cc1 (configuration not stated) | inconclusive: 39.8 µM [fluorescent, side channel, single point]

Copied from the listing for reference:
SMILES | Potency
Cc1c(C=O)c2ccccn2c1C(=O)c1ccccc1Cl | inconclusive: 70.8 µM [fluorescent, side channel, single point]
S=c1nc(-c2ccc(Br)cc2)oc2c1CCCC2 | inconclusive: 89.1 µM [inhibitor, single point]
COCCOc1cc(NC(=O)c2sccc2Oc2ccc([N+](=O)[O-])cc2F)c(Cl)cc1Cl | inactive
O=c1[nH]c(N/N=C/c2cc3c(cc2[N+](=O)[O-])OCO3)nc2ccccc12 | inactive
